For two substances, step yield, crude mass and isolated mass results are on record in patent publication US5631230A (priority 1994, dated 1997).

Non-standard residues stand in square brackets, D forms with d. NMeNle = CCCC[C@H](NC)C(=O)O

The nature of the data set: general procedure: Boc solid-phase peptide synthesis; p-methylbenzhydrylamine (PMBHA) resin, substitution 1.0 mmol/g; DCC/HOBt.

In the case of “H-Asp-Tyr-N-MeNle-Gly-Trp-N-MeNle-Asp-Phe-NH2 Bis-SO3^θ”, the step yield (late stage modification step) is recorded as 33% yield.
Take H-GW[NMeNle]DF-NH2: the step yield (purification step) amounted to 10% yield. For the same substance, for the setting “whole synthesis”, the crude mass is reported as 600 mg and the isolated mass worked out at 400 mg.
